Measurements reported in paper PMC12223778.
These are yes or no findings as the source states them, for the method shown. Binding seen in cells or lysates may run through a third protein. Some results given as binding are weak or reduced against the parent protein; the word gives no strength.

Protein sequences, listed by entry. Tags and fused reporters are not part of them.
UniProt P51149: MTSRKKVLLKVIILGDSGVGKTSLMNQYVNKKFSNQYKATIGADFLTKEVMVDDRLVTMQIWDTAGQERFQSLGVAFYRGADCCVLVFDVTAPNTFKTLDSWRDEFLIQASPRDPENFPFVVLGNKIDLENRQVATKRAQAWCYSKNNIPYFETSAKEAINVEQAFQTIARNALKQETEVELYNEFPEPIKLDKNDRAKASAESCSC

Target: T1, Sestrin2 (SESN2) in HK-2 cells (human (endogenous in HK-2)) (UniProt P58004)
T1 sequence: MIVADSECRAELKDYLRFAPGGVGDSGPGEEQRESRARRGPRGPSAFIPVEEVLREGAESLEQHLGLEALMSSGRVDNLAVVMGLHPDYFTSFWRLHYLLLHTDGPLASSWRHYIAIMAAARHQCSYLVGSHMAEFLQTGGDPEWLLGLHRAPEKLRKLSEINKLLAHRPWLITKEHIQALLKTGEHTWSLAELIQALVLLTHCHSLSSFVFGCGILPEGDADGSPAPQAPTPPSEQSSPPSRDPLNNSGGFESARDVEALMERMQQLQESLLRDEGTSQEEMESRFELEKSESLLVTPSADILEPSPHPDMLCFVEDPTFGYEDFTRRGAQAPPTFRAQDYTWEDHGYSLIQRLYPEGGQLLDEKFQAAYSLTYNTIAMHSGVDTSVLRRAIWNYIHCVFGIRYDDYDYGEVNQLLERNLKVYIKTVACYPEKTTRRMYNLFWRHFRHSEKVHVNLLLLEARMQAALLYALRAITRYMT
Test: co-IP; anti-SESN2 or anti-Rab-7a antibody on protein A magnetic beads, incubated with HK-2 cell lysates overnight at 4 °C; western blotting

- binding: binds
Substance: Rab-7a (from UniProt P51149 1-207)
